Among the data in paper doi:10.1101/2021.05.03.442391 are binding values, retold here.

Chains of the proteins cited; added tags and fusions are not shown.
UniProt Q9CW03: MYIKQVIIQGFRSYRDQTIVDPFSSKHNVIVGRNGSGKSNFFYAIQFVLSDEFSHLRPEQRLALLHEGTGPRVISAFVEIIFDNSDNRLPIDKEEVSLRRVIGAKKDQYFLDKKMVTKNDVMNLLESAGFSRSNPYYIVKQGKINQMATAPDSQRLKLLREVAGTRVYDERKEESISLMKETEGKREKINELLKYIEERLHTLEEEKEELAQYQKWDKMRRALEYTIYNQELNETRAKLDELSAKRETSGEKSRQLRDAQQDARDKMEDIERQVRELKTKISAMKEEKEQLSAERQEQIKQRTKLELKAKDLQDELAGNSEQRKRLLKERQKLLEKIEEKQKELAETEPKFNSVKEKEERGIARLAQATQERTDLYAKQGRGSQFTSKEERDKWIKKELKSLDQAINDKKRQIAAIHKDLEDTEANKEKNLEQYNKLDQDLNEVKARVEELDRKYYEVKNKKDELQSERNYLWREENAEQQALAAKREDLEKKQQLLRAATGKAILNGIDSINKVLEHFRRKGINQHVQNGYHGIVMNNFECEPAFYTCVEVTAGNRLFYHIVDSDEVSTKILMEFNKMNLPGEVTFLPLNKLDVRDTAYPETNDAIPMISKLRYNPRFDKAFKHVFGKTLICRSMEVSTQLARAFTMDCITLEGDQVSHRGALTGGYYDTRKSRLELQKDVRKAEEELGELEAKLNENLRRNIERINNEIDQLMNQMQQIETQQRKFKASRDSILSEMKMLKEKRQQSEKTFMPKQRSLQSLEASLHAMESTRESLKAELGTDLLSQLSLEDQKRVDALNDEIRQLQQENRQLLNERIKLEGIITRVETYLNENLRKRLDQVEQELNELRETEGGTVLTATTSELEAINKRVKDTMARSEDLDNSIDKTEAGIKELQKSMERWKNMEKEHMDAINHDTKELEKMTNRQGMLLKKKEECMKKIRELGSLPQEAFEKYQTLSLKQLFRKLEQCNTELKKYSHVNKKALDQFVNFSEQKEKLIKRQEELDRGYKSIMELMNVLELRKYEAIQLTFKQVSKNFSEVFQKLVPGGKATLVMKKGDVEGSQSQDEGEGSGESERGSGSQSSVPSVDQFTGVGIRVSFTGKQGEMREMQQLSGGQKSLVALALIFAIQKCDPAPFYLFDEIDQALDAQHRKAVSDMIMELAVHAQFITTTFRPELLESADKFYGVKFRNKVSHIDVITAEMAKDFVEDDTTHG

Where two headings read alike, the source gives them in different places. No constants are given. Whether binding was seen depends on the method and setting. Binding seen in cells or lysates may run through a third protein. Some entries that bind do so weakly or less than the wild type. Tags and fused reporters may be left off the sequences shown.

Common to all, as to experiment: co-IP
In assay [1] the target is SMC3 (mouse (endogenous in J1 ESCs and C57BL/6J testis)) (UniProt Q9CW03).
The target is the same in assay [2]. The source holds these as a separate data set.
Assay [3] addresses T1, REC8 (mouse (endogenous in J1 ESCs and C57BL/6J testis)) (UniProt Q8C5S7).
T1 sequence: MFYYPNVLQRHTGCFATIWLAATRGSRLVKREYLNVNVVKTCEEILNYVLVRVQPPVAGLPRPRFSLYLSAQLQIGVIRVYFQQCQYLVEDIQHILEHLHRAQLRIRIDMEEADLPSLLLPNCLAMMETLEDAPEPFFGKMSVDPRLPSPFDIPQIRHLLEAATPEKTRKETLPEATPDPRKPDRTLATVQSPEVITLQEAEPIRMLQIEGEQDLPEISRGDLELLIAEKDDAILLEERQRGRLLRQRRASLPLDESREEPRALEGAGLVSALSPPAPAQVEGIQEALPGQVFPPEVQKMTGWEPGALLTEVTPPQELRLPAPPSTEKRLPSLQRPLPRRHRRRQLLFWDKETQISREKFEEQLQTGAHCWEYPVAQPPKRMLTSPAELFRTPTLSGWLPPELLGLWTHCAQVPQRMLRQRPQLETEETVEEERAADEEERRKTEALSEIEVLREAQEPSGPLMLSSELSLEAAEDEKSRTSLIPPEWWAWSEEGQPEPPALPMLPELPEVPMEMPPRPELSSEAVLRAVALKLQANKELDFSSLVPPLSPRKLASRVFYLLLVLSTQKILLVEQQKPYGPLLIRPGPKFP

Assay [4] has as its target T2, RAD21 (mouse (endogenous in J1 ESCs and C57BL/6J testis)), Q61550.
T2 chain: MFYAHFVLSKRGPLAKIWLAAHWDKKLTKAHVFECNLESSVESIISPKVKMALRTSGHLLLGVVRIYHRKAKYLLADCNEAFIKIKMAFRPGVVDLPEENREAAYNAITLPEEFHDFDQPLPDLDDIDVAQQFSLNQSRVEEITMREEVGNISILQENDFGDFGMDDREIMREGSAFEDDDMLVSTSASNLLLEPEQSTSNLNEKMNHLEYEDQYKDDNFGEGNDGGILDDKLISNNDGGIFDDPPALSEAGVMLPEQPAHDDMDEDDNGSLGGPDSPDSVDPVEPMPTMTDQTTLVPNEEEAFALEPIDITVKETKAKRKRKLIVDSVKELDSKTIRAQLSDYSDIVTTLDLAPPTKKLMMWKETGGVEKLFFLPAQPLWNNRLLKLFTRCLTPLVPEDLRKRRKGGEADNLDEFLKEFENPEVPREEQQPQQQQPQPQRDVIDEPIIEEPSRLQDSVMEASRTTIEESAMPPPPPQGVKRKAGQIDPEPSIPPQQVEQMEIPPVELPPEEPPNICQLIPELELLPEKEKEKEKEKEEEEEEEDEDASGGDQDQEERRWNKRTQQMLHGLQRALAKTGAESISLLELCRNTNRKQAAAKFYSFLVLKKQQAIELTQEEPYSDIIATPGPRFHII
To be noted: remark: other sources report otherwise.

B1: REC8 (protein, UniProt Q8C5S7 1-591)
chain: MFYYPNVLQRHTGCFATIWLAATRGSRLVKREYLNVNVVKTCEEILNYVLVRVQPPVAGLPRPRFSLYLSAQLQIGVIRVYFQQCQYLVEDIQHILEHLHRAQLRIRIDMEEADLPSLLLPNCLAMMETLEDAPEPFFGKMSVDPRLPSPFDIPQIRHLLEAATPEKTRKETLPEATPDPRKPDRTLATVQSPEVITLQEAEPIRMLQIEGEQDLPEISRGDLELLIAEKDDAILLEERQRGRLLRQRRASLPLDESREEPRALEGAGLVSALSPPAPAQVEGIQEALPGQVFPPEVQKMTGWEPGALLTEVTPPQELRLPAPPSTEKRLPSLQRPLPRRHRRRQLLFWDKETQISREKFEEQLQTGAHCWEYPVAQPPKRMLTSPAELFRTPTLSGWLPPELLGLWTHCAQVPQRMLRQRPQLETEETVEEERAADEEERRKTEALSEIEVLREAQEPSGPLMLSSELSLEAAEDEKSRTSLIPPEWWAWSEEGQPEPPALPMLPELPEVPMEMPPRPELSSEAVLRAVALKLQANKELDFSSLVPPLSPRKLASRVFYLLLVLSTQKILLVEQQKPYGPLLIRPGPKFP
On to B1, for which the binding result in assay [1] and in assay [2] was “binds” in each case.

B2: RAD21 (protein, UniProt Q61550 1-635)
chain: MFYAHFVLSKRGPLAKIWLAAHWDKKLTKAHVFECNLESSVESIISPKVKMALRTSGHLLLGVVRIYHRKAKYLLADCNEAFIKIKMAFRPGVVDLPEENREAAYNAITLPEEFHDFDQPLPDLDDIDVAQQFSLNQSRVEEITMREEVGNISILQENDFGDFGMDDREIMREGSAFEDDDMLVSTSASNLLLEPEQSTSNLNEKMNHLEYEDQYKDDNFGEGNDGGILDDKLISNNDGGIFDDPPALSEAGVMLPEQPAHDDMDEDDNGSLGGPDSPDSVDPVEPMPTMTDQTTLVPNEEEAFALEPIDITVKETKAKRKRKLIVDSVKELDSKTIRAQLSDYSDIVTTLDLAPPTKKLMMWKETGGVEKLFFLPAQPLWNNRLLKLFTRCLTPLVPEDLRKRRKGGEADNLDEFLKEFENPEVPREEQQPQQQQPQPQRDVIDEPIIEEPSRLQDSVMEASRTTIEESAMPPPPPQGVKRKAGQIDPEPSIPPQQVEQMEIPPVELPPEEPPNICQLIPELELLPEKEKEKEKEKEEEEEEEDEDASGGDQDQEERRWNKRTQQMLHGLQRALAKTGAESISLLELCRNTNRKQAAAKFYSFLVLKKQQAIELTQEEPYSDIIATPGPRFHII
With B2, the binding result in assay [1] and in assay [2] was “binds” in each case.

B3: STAG3 (protein, UniProt O70576 1-1240)
chain: MPTLWSPSTQHHGSSSGSESSPLQKSVRRAQMALSPCSSSILPCDDRDSQGTAEWDSPSTNEDSDFEDSLRRNVKKRAAKQPPKAVPAAKHRKKQSRIVSSGNGKNESVPSTNYLFDAVKAARSCMQSLVDEWLDNYKQDENAGFLELINFFIRACGCKSTVTPEMFKTMSNSEIIQHLTEEFNEDSGDYPLTAPGPSWKKFQGSFCEFVKTLVYQCQYSLLYDGFPMDDLISLLIGLSDSQVRAFRHTSTLAAMKLMTSLVKVALQLSLHKDNNQRQYEAERNKGPEQRAPERLESLLEKRKEFQENQEDIEGMMNAIFRGVFVHRYRDILPEIRAICIEEIGYWMQSYSTSFLNDSYLKYIGWTLHDKHKEVRLKCVKALAGLYSNQELSLRMELFTNRFKDRMVSMVMDRECEVAVEAIRLLTLILKNMEGVLTSADCEKIYSIVYISNRAMASSAGEFVYWKIFHPECGAKAVSDRERRRSPQAQKTFIYLLLAFFMESEHHNHAAYLVDSLWDCAGSYLKDWESLTNLLLQKDQNLGDMQERMLIEILVSSARQAAEGHPPVGRITGKKSLTAKERKLQAYDKMKLAEHLIPLLPQLLAKFSADAENVAPLLQLLSYFDLSIYCTQRLEKHLELLLQQLQEVVVKHVEPEVLEAAAHALYLLCKPEFTFFSRVDFARSQLVDFLTDRFQQELDDLMQSSFLDEDEVYSLTATLKRLSAFYNAHDLTRWEISEPCSRLLRKAVDTGEVPHQVILPALTLVYFSILWTVTHISESTSHKQLMSLKKRMVAFCELCQSCLSDVDPEIQEQAFVLLSDLLLIFSPQMIVGGRDFLRPLVFFPEATLQSELASFLMDHVFLQPGELGNGQSQEDHVQIELLHQRRRLLAGFCKLLLYGVLELDAASDVFKHYNKFYEDYGDIIKETLTRARQIDRCQCSRILLLSLKQLYTELIQEQGPQGLTELPAFIEMRDLARRFALSFGPQQLHNRDLVVMLHKEGIKFSLSELPPAGSSHEPPNLAFLELLSEFSPRLFHQDKRLLLSYLEKCLQRVSKAPNHPWGPVTTYCHSLHPLEITAEASPRGPPHSKKRCVEGPCRPQEEESSSQEESLQLNSGPTTPTLTSTAVKRKQSLRTVGKKQKGRPGPGPGPGPELICSQQLLGTQRLKMSSAPCFQIRCDPSGSGLGKQLTRLSLMEEDEEEELRLLDEEWQRGDKMLHSPSSPSEHGLDLLDTTELNMEDF
Take B3: the binding entry in assay [1], in assay [3] and in assay [2] was “binds” in each case.

B4: STAG3, O70576 1-1240 (protein)
chain: MPTLWSPSTQHHGSSSGSESSPLQKSVRRAQMALSPCSSSILPCDDRDSQGTAEWDSPSTNEDSDFEDSLRRNVKKRAAKQPPKAVPAAKHRKKQSRIVSSGNGKNESVPSTNYLFDAVKAARSCMQSLVDEWLDNYKQDENAGFLELINFFIRACGCKSTVTPEMFKTMSNSEIIQHLTEEFNEDSGDYPLTAPGPSWKKFQGSFCEFVKTLVYQCQYSLLYDGFPMDDLISLLIGLSDSQVRAFRHTSTLAAMKLMTSLVKVALQLSLHKDNNQRQYEAERNKGPEQRAPERLESLLEKRKEFQENQEDIEGMMNAIFRGVFVHRYRDILPEIRAICIEEIGYWMQSYSTSFLNDSYLKYIGWTLHDKHKEVRLKCVKALAGLYSNQELSLRMELFTNRFKDRMVSMVMDRECEVAVEAIRLLTLILKNMEGVLTSADCEKIYSIVYISNRAMASSAGEFVYWKIFHPECGAKAVSDRERRRSPQAQKTFIYLLLAFFMESEHHNHAAYLVDSLWDCAGSYLKDWESLTNLLLQKDQNLGDMQERMLIEILVSSARQAAEGHPPVGRITGKKSLTAKERKLQAYDKMKLAEHLIPLLPQLLAKFSADAENVAPLLQLLSYFDLSIYCTQRLEKHLELLLQQLQEVVVKHVEPEVLEAAAHALYLLCKPEFTFFSRVDFARSQLVDFLTDRFQQELDDLMQSSFLDEDEVYSLTATLKRLSAFYNAHDLTRWEISEPCSRLLRKAVDTGEVPHQVILPALTLVYFSILWTVTHISESTSHKQLMSLKKRMVAFCELCQSCLSDVDPEIQEQAFVLLSDLLLIFSPQMIVGGRDFLRPLVFFPEATLQSELASFLMDHVFLQPGELGNGQSQEDHVQIELLHQRRRLLAGFCKLLLYGVLELDAASDVFKHYNKFYEDYGDIIKETLTRARQIDRCQCSRILLLSLKQLYTELIQEQGPQGLTELPAFIEMRDLARRFALSFGPQQLHNRDLVVMLHKEGIKFSLSELPPAGSSHEPPNLAFLELLSEFSPRLFHQDKRLLLSYLEKCLQRVSKAPNHPWGPVTTYCHSLHPLEITAEASPRGPPHSKKRCVEGPCRPQEEESSSQEESLQLNSGPTTPTLTSTAVKRKQSLRTVGKKQKGRPGPGPGPGPELICSQQLLGTQRLKMSSAPCFQIRCDPSGSGLGKQLTRLSLMEEDEEEELRLLDEEWQRGDKMLHSPSSPSEHGLDLLDTTELNMEDF
Consider B4, for which the binding result in assay [4] was “no binding”.
